From paper PMC12431657, “Discovery and mechanistic insights of dibenzoylmethane as a broad spectrum inhibitor of coronavirus” (PLOS Pathogens, 2025)
Where two headings read alike, the source gives them in different places. Screen size: about 3,300 compounds; about 60 (2%) showed an effect of 50% or more. The list shows a part of the results.

Tested on: HCoV-OC43
Parameters: species or system RD; HTS, protection from HCoV-OC43 induced cell death, luminescent cell viability (CellCounting-Lite 2.0), inhibition rate
Details: 24 h post infection, 1 h compound pre-incubation, 10 µM, inhibitor

Structure (SMILES)	OC43 Inhibition rate [%]	OC43 Inhibition rate (OC43 Inhibition rate, 24 h) [%]
O=c1cc(-c2ccc(O)cc2)oc2c([C@@H]3OC[C@@H](O)[C@H](O)[C@H]3O)c(O)c([C@@H]3O[C@H](CO)[C@@H](O)[C@H](O)[C@H]3O)c(O)c12 [Vicenin 3]	0.6	
COc1cc(O)cc2oc(-c3ccc(O)c(O)c3)c(O)c(=O)c12 [Azaleatin]	7.4	
CCCCC[C@H](O)/C=C/[C@@H]1[C@@H](C/C=C\CCCC(=O)O)[C@@H](O)C[C@H]1O [Dinoprost]	4	
COC(=S)NCc1ccc(O[C@@H]2O[C@@H](C)[C@H](O)[C@@H](O)[C@H]2O)cc1 [Niazinin]	0.7	
C[C@@H](CO)CCC[C@@H](C)[C@H]1CC[C@H]2[C@@H]3CC=C4C[C@@H](O)CC[C@]4(C)[C@H]3CC[C@]12C [27-Hydroxycholesterol]	0	
O=c1c2cc(O[C@@H]3O[C@H](CO)[C@@H](O)[C@H](O)[C@H]3O)c(O)cc2oc2cc(O)c([C@@H]3O[C@H](CO)[C@@H](O)[C@H](O)[C@H]3O)c(O)c12 [Neomangiferin]	3	
C[N+](C)(C)CCOP(=O)(O)OP(=O)([O-])OC[C@H]1O[C@@H](n2ccc(N)nc2=O)[C@H](O)[C@@H]1O [Citicoline]		-2.5
CC(=O)Oc1cccc2c1C(=O)c1c(OC(C)=O)cc(C(=O)O)cc1C2=O [Diacerein]	15.7	
CCCCCCCCCCCCCC(=O)OC [Methyl myristate]	-5.4	
CCCCC/C=C\C/C=C\CCCCCCCC(=O)OC [Methyl linoleate]	-1	
NCCCN(CCCCNCCCNC(=O)CCc1ccc(O)c(O)c1)C(=O)CCc1ccc(O)c(O)c1 [Kukoamine B]	-0.1	
CCCCC/C=C\CCCCCCc1cc(=O)c2ccccc2n1C [Evocarpine]	18.7	
CCC/C=C/C=O [Trans-2-Hexenal]	-0.7	
O=C(O)C1CCN1 (stereo not shown) [Azetidine-2-carboxylic acid]	-6.6	
COc1ccc2c(c1OC)CN(C)c1c-2ccc2cc3c(cc12)OCO3 [Dihydrochelerythrine]	1.4	
C[C@H](CCC(=O)NCCS(=O)(=O)O)[C@H]1CC[C@H]2[C@@H]3[C@H](O)C[C@@H]4C[C@H](O)CC[C@]4(C)[C@H]3CC[C@]12C [Taurochenodeoxycholic acid (sodium)]		0.2
COC(=O)C1=CO[C@@H](O[C@@H]2O[C@H](CO)[C@@H](O)[C@H](O)[C@H]2O)[C@@H]2[C@@H](C)[C@@H](O)C[C@H]12 [Loganin]	0.6	
C/C=C/c1cc(OC)c2c(c1)C(C)C(c1ccc(O)c(OC)c1)O2 (stereo not shown) [Dehydrodiisoeugenol]	1.2	
COc1cc(/C=C/C(=O)O)cc(OC)c1OC [3,4,5-Trimethoxycinnamic acid]	0.3	
C=C(C)[C@@H]1CC=C(CO)CC1 [Perillyl alcohol]		0.1
OC[C@H]1O[C@@H](Oc2ccc(O)cc2)[C@H](O)[C@@H](O)[C@@H]1O [Arbutin]	-0.2	

Structure (SMILES)	OC43 Inhibition rate [%]	OC43 Inhibition rate (OC43 Inhibition rate, 24 h) [%]
O=c1ccn([C@H]2C[C@H](O)[C@@H](COP(=O)(O)O)O2)c(=O)[nH]1 [2'-Deoxyuridine 5'-monophosphate (disodium)]	1	
CCCCCC/C=C\CCCCCCCCCc1cccc(O)c1C(=O)O [Ginkgolic acid C17:1]	-3.3	
COc1ccc(C[C@@H]2c3cc(Oc4cc(C[C@@H]5c6cc(O)c(OC)cc6CCN5C)ccc4O)c(OC)cc3CCN2C)cc1 [Isoliensinine]	30.7	
OC[C@H]1OC(O)[C@@H](O)[C@@H](O)[C@@H]1O (stereo partly drawn) [D-Mannose]	3.4	
COc1ccc(OC)cc1 [1,4-Dimethoxybenzene]	0.9	
COc1cc(C)ccc1O [Creosol]	0.5	
O=c1c(-c2ccc(O)cc2)coc2cc(O[C@@H]3O[C@H](CO)[C@@H](O)[C@H](O)[C@H]3O)cc(O)c12 [Genistin]	1.6	
Nc1ccc(C(=O)NCC(=O)O)cc1 [4-Aminohippuric acid]	-0.5	
C[C@]12CC[C@@H]3c4ccc(OS(=O)(=O)O)cc4CC[C@H]3[C@@H]1CCC2=O [Estropipate]		1.4
CC(=O)[C@H]1CC[C@H]2[C@@H]3CC[C@H]4CC(=O)CC[C@]4(C)[C@H]3CC[C@]12C [5a-Pregnane-3,20-dione]	7.4	
Cn1cncc1C[C@H](N)C(=O)O [3-Methyl-L-histidine]	-5.7	
CO[C@@H]1[C@@H](OC(N)=O)[C@@H](O)[C@H](Oc2ccc3c(O)c(NC(=O)c4ccc(O)c(CC=C(C)C)c4)c(=O)oc3c2C)OC1(C)C [Novobiocin (sodium)]	7.5	
O=C1c2ccccc2-n2c1nc1ccccc1c2=O [Tryptanthrin]	-1	
C[C@@]1(CO)C[C@@H](O)C[C@@]2(C)[C@@H]3CC[C@](C)([C@@H](O)CO)C=C3CC[C@H]12 [Kirenol]	-0.2	
COc1cc2c(cc1O)C[C@@H]1NCCc3cc(OC)c(O)c-2c31 [Norisoboldine]	0.7	
C[C@H]1O[C@@H](O[C@H]2CC[C@@]3(C)[C@@H](CC[C@]4(C)[C@@H]3C=C[C@]35OC[C@@]6(CCC(C)(C)C[C@H]63)[C@@H](O)C[C@]54C)[C@]2(C)CO)[C@H](O)[C@@H](O[C@@H]2O[C@H](CO)[C@@H](O)[C@H](O)[C@H]2O)[C@H]1O [Saikosaponin A]	11.9	
COc1cc2c(O)c3c(c(-c4ccc5c(c4)OCO5)c2cc1OC)C(=O)OC3 [Diphyllin]	-0.3	
CC(C)=CCc1c(O)cc2oc3cc(O)c(O)c(CC=C(C)C)c3c(=O)c2c1O [Gamma-Mangostin]	3.3	
C[C@@H]1C(=O)O[C@H](C)[C@H]1C[C@@H](O)[C@](C)(O)[C@H]1CC[C@@]2(O)C3=CC(=O)[C@@H]4C[C@@H](O)[C@@H](O)C[C@]4(C)[C@H]3CC[C@]12C [Cyasterone]	-0.4	
COc1ccc([C@@H]2CC(=O)c3c(O)cc(O[C@@H]4O[C@H](CO)[C@@H](O)[C@H](O)[C@H]4O)cc3O2)cc1 [Isosakuranin]	-2.3	
C/C1=C\[C@@H]2[C@H](C/C=C(/CO)[C@@H](O)[C@@H]3[C@@H](O)[C@@H](C)C[C@]3(O)C1=O)C2(C)C [17-Hydroxyisolathyrol]	0.6	

15 successive compounds out of the list so far, for reference:
Structure (SMILES)	OC43 Inhibition rate [%]	OC43 Inhibition rate (OC43 Inhibition rate, 24 h) [%]
COc1cc(/C=C/C(=O)O)cc(OC)c1OC [3,4,5-Trimethoxycinnamic acid]	0.3	
C=C(C)[C@@H]1CC=C(CO)CC1 [Perillyl alcohol]		0.1
OC[C@H]1O[C@@H](Oc2ccc(O)cc2)[C@H](O)[C@@H](O)[C@@H]1O [Arbutin]	-0.2	
O=c1ccn([C@H]2C[C@H](O)[C@@H](COP(=O)(O)O)O2)c(=O)[nH]1 [2'-Deoxyuridine 5'-monophosphate (disodium)]	1	
CCCCCC/C=C\CCCCCCCCCc1cccc(O)c1C(=O)O [Ginkgolic acid C17:1]	-3.3	
COc1ccc(C[C@@H]2c3cc(Oc4cc(C[C@@H]5c6cc(O)c(OC)cc6CCN5C)ccc4O)c(OC)cc3CCN2C)cc1 [Isoliensinine]	30.7	
OC[C@H]1OC(O)[C@@H](O)[C@@H](O)[C@@H]1O (stereo partly drawn) [D-Mannose]	3.4	
COc1ccc(OC)cc1 [1,4-Dimethoxybenzene]	0.9	
COc1cc(C)ccc1O [Creosol]	0.5	
O=c1c(-c2ccc(O)cc2)coc2cc(O[C@@H]3O[C@H](CO)[C@@H](O)[C@H](O)[C@H]3O)cc(O)c12 [Genistin]	1.6	
Nc1ccc(C(=O)NCC(=O)O)cc1 [4-Aminohippuric acid]	-0.5	
C[C@]12CC[C@@H]3c4ccc(OS(=O)(=O)O)cc4CC[C@H]3[C@@H]1CCC2=O [Estropipate]		1.4
CC(=O)[C@H]1CC[C@H]2[C@@H]3CC[C@H]4CC(=O)CC[C@]4(C)[C@H]3CC[C@]12C [5a-Pregnane-3,20-dione]	7.4	
Cn1cncc1C[C@H](N)C(=O)O [3-Methyl-L-histidine]	-5.7	
CO[C@@H]1[C@@H](OC(N)=O)[C@@H](O)[C@H](Oc2ccc3c(O)c(NC(=O)c4ccc(O)c(CC=C(C)C)c4)c(=O)oc3c2C)OC1(C)C [Novobiocin (sodium)]	7.5	

Continued:

Structure (SMILES)	OC43 Inhibition rate [%]	OC43 Inhibition rate (OC43 Inhibition rate, 24 h) [%]
CSC(=O)OCC1=C[C@H](O)[C@@H]2C(C(=O)O)=CO[C@@H](O[C@@H]3O[C@H](CO)[C@@H](O)[C@H](O)[C@H]3O)[C@H]12 [Paederosidic acid]	1.2	
O=c1c(-c2ccccc2)coc2ccccc12 [Isoflavone]	-0.2	
OC[C@H]1O[C@@H](Oc2cc3c(O)cc(O)cc3[o+]c2-c2cc(O)c(O)c(O)c2)[C@H](O)[C@@H](O)[C@@H]1O [Delphinidin 3-glucoside (chloride)]	-0.6	
CC(=O)N[C@@H](CCC(=O)O)C(=O)O [N-Acetyl-L-glutamic acid]	-1.2	
CC(=O)OCC[N+](C)(C)C [Acetylcholine (iodide)]		-0.8
COc1c(-c2ccccc2)oc2cc(O)cc(O)c2c1=O [3-O-Methylgalangin]	13.9	
C=C(C)C(=O)O[C@H]1CC2=C[C@@H](C/C(C)=C/[C@H]3OC(=O)C(=C)[C@H]13)OC2=O [Deoxyelephantopin]	0.2	
NCCOP(=O)(O)O [Phosphorylethanolamine]	-0.9	
C=CCCN1C[C@@H]2C[C@H](C1)c1cccc(=O)n1C2 [Rhombifoline]	-0.2	
CC(=O)O[C@H]1C[C@@]2(C)[C@@H](C[C@H]1O)C(=O)C=C1[C@@H]2CC[C@]2(C)[C@@H]([C@@](C)(O)[C@H](O)CCC(C)(C)O)CC[C@@]12O [2-O-Acetyl-20-hydroxyecdysone]	0.4	
NC[C@H]1O[C@H](O[C@H]2[C@H](O[C@@H]3O[C@H](CO)[C@@H](O)[C@H]3O)[C@@H](O)[C@H](N)C[C@@H]2N)[C@H](N)[C@@H](O)[C@@H]1O [Ribostamycin (sulfate)]	0.8	
O=C(CCc1ccc(O)cc1)c1c(O)cc(O[C@@H]2O[C@H](CO)[C@@H](O)[C@H](O)[C@H]2O)cc1O [Trilobatin]	-0.5	
COc1ccc2[nH]cc(CCNC(C)=O)c2c1 [Melatonin]	-0.1	
C=CC[C@@H]1/C=C(\C)C[C@H](C)C[C@H](OC)[C@H]2O[C@@](O)(C(=O)C(=O)N3CCCC[C@H]3C(=O)O[C@H](/C(C)=C/[C@@H]3CC[C@@H](O)[C@H](OC)C3)[C@H](C)[C@@H](O)CC1=O)[C@H](C)C[C@@H]2OC [Tacrolimus (monohydrate)]	5	
CC1=C(/C=C/C(C)=C/C=C/C(C)=C/C(=O)O)C(C)(C)CCC1=O [all-trans-4-Oxoretinoic acid]	2.4	
O=C(O)CCC(=O)O [Disodium succinate]		-2.2
CC1(C)CCC[C@](C)([C@H]2CC[C@]3(C)[C@@H]2[C@H](O)C[C@@H]2[C@@]4(C)CC[C@H](O)C(C)(C)[C@@H]4CC[C@]23C)O1 [Panaxadiol]	24.1	
Cc1ncc([N+](=O)[O-])n1CCO [Metronidazole]	16.2	
O=C(/C=C/c1ccc(O)c2c1[C@H](C(=O)O[C@H](Cc1ccc(O)c(O)c1)C(=O)O)[C@@H](c1ccc(O)c(O)c1)O2)O[C@H](Cc1ccc(O)c(O)c1)C(=O)O [Magnesium Lithospermate B]	2.9	
